Some results were stated once for a whole list of compounds, not compound by compound.
Test system: primary rat adipocyte cultures
Format: cell-based
Description: Adipocytes were isolated from epididymal fat dissected from normal young adult Sprague-Dawley rats. The fat lumps were minced, incubated and shaken (220 rpm) with collagenase (1 mg/ml) in Krebs-Ringer buffer containing 4% BSA (KRB-BSA) for 60 minutes at 37° C. The suspension was filtered through a nylon filter (160 μm pore size) and the filtrate centrifuged at 200×g for 3 min. The subjacent medium beneath the upper floating layer of adipocytes was removed with a Pasteur-pipette. The adipocytes were washed 3 times in KRB-BSA buffer by re-suspension and centrifugation. The adipocytes were re-suspended in KRB-BSA, mixed, incubated in and shaken with test compounds in 96-deep well plates (50,000 cells/well) in a total volume of 1 ml at 37° C. for 60 min. The plates were placed on ice for at least 10 min after incubation followed by centrifugation at 200×g for 3 min. 300 μl of the buffer beneath the adipocyte layer were collected in a 96-deep well plate. This process was repeated two more times and the 3 extracts collected from each culture pooled together.

Substance | lipolysis potency relative to OXM
H-HSQGTFTSDYSKYLDRARAHDFVAWLKST-NH2 [ZP2648] | 7-12 times
H-HSQGTFTSDYSKYLDRARADDFVAWLERA-NH2 [ZP2650] | 7-12 times
